Experimental data published in PMC7862700.
The list shows a part of the results, in another mix than the full data. At the low end of the ranking, values are background and their order means little.

The chains behind the UniProt entries cited, without tags or fusion partners. Where a name states a change or a piece, a line headed by the entry shows the natural chain unless it says otherwise.
UniProt O43186: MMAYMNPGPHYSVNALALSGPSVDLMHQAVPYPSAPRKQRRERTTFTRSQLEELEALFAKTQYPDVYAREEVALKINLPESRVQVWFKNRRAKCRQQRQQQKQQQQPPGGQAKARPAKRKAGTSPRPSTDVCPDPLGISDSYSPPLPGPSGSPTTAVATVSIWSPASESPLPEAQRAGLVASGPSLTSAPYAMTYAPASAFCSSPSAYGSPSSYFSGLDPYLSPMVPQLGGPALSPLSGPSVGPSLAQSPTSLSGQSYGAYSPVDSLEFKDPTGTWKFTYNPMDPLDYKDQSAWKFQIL

These sequences were tested against CRX (UniProt O43186) (assay: DAPPL (digital affinity profiling via proximity ligation, sequencing)). Conditions: 10 mM Tris-HCl pH 7.5, 50 mM NaCl, 1 mM DTT, 4% glycerol, room temperature, 30 min; GST-TFs on glutathione beads, 16-mer random dsDNA library, 0.1% …; high values mean tight binding; double strand, one strand shown; scale: fold enrichment (6-mer frequency, TF over GST control).

Sequence | binding signal
ACTGCG | 0.925
CGATTC | 1.09
GTGCTC | 0.935
ATACCG | 0.875
ATATGG | 1.19
GTTAAC | 1.15
GTTTTC | 0.942
GACCTC | 0.999
CGTTAC | 0.864
GATGAA | 1.22
ATGATC | 1.74
TGCTGC | 0.949
CTGCTA | 1.36
TCGCGC | 0.949
CCTCGT | 0.914
ACCCTA | 1.29
ATGCAC | 0.978
ATTAGC | 2.83
GAACCT | 1.06
ATGCGG | 0.918

Looked up above.
For binding signal, GAACCT is listed with 1.06
For binding signal, ACTGCG is listed with 0.925
For binding signal, ATATGG is listed with 1.19

The list goes on.

Sequence | binding signal
GCGTTC | 0.877
AATGGC | 1.26
TAACGA | 1.57
CTTCGG | 1.52
ACTTAA | 2.66
GGAAAC | 0.577
CGCTTC | 1.05
GATGAC | 1.26
CGGATA | 0.966
AATAGC | 1.15
TTGGGT | 1.07
CTTTCC | 1.54
TGTGTT | 0.854
CTATAT | 1.3
ATTTAC | 1.75
CCCCCG | 0.921
GCCTAT | 1.3
CTGGAC | 0.973
GTCTTA | 1.94
